Results are given in words; binding and its absence hold for the method and conditions named. Binding seen in cells or lysates may run through a third protein. Some entries that bind do so weakly or less than the wild type.
Molecular target: wild type glucocorticoid receptor (GR), full length (UniProt P06536)
Assay: anti-HA co-immunoprecipitation from cotransfected Cos-7 cells (data not shown)

Chains of the proteins cited; added tags and fusions are not shown. Residues count along the entry.
UniProt P06536: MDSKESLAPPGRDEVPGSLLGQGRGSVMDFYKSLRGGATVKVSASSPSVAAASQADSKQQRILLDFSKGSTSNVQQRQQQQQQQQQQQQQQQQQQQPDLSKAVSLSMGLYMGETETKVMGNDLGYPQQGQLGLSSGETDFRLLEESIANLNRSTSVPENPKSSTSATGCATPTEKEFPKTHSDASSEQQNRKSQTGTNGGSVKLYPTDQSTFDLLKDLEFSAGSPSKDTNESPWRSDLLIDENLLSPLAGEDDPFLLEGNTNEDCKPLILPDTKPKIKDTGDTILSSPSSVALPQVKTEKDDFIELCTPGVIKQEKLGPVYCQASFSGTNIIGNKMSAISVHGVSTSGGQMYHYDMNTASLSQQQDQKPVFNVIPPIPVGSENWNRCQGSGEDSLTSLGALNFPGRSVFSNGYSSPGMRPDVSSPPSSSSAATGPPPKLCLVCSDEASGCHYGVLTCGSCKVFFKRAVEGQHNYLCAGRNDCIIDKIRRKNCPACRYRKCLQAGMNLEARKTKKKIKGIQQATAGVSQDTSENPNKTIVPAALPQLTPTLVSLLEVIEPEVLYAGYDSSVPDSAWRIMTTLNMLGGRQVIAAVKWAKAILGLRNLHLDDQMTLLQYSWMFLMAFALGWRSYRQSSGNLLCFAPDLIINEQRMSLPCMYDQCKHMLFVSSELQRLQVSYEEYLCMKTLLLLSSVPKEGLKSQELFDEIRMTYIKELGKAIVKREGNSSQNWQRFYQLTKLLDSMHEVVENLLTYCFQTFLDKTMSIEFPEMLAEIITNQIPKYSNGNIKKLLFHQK
UniProt Q61026, residues 5-1462: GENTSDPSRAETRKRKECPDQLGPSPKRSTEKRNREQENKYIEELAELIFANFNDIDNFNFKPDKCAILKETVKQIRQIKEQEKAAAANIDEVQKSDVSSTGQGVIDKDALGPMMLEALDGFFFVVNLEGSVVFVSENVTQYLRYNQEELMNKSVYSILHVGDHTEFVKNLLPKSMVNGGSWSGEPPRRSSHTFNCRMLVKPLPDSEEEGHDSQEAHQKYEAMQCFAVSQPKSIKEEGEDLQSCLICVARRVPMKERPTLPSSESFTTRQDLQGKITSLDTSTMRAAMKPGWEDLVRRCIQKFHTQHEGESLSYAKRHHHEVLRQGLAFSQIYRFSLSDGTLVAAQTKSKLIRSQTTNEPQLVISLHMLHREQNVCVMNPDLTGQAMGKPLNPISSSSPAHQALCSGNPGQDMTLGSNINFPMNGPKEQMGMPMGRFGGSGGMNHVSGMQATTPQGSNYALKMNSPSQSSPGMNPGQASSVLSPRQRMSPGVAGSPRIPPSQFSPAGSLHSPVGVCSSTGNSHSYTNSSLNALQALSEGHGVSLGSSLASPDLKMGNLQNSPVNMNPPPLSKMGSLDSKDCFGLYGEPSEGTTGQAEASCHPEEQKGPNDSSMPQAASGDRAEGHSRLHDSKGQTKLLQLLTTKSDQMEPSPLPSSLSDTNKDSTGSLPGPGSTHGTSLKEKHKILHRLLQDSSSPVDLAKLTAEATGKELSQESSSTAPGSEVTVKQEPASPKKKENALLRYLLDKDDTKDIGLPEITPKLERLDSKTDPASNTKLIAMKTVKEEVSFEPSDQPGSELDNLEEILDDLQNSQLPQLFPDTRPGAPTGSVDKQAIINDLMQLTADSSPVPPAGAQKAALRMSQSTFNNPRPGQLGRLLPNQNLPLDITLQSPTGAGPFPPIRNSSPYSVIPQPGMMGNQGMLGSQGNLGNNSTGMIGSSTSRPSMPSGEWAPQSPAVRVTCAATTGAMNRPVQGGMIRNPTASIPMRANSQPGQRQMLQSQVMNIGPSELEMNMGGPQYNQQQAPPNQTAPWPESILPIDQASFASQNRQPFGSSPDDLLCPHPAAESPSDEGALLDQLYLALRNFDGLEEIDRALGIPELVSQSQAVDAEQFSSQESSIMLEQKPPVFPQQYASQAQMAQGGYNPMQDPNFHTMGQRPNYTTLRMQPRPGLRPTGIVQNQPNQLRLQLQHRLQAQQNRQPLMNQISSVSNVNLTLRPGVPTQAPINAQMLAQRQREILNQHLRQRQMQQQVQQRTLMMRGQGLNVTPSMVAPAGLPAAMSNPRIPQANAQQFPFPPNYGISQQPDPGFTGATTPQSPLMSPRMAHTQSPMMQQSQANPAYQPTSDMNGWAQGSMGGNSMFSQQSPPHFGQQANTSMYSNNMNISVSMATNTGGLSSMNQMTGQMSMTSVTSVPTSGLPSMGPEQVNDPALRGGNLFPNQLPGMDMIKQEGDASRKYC

## HA/GRIP1 (from UniProt Q61026 5-1462)
  binding: binds
